# From the supplement of paper PMC4604168 (melanoma cell lines)
# This is one part of the list. Single values are uncertain, as repeats are few or missing.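 The apoptosis fraction was the count of cleaved-PARP antibody-stained nuclei relative to all DNA-stained nuclei, imaged in 1,536-well plates. Screening doses were set so most cells survived, and baseline and induced cleaved-PARP levels vary greatly across cell lines.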
# Assays:
# Assay in all cases: cleaved PARP positive nuclei fraction relative to DMSO control; melanoma cells; higher = more apoptosis
# Settings in all cases: library dose: low library concentration; 72 h
# 501Mel = system: 501Mel
# A101D = system: A101D
# A2058 = system: A2058
# A375 = system: A375
# C32 = system: C32
# CBRC008 = system: CBRC008 (line from a melanoma biopsy)
# CBRC013 = system: CBRC013 (line from a melanoma biopsy)
# CBRC014 = system: CBRC014 (line from a melanoma biopsy)
# CBRC016 = system: CBRC016 (line from a melanoma biopsy)
# CBRC017 = system: CBRC017 (line from a melanoma biopsy)
# COLO792 = system: COLO792
# COLO800 = system: COLO800
# COLO829 = system: COLO829
# G361 = system: G361
# IPC-298 = system: IPC-298
# IST-MEL1 = system: IST-MEL1
# LB2518-MEL = system: LB2518-MEL
# LOXIMVI = system: LOXIMVI
# MEL-HO = system: MEL-HO
SMILES,cleaved PARP positive nuclei fraction (501Mel) [%],cleaved PARP positive nuclei fraction (A101D) [%],cleaved PARP positive nuclei fraction (A2058) [%],cleaved PARP positive nuclei fraction (A375) [%],cleaved PARP positive nuclei fraction (C32) [%],cleaved PARP positive nuclei fraction (CBRC008) [%],cleaved PARP positive nuclei fraction (CBRC013) [%],cleaved PARP positive nuclei fraction (CBRC014) [%],cleaved PARP positive nuclei fraction (CBRC016) [%],cleaved PARP positive nuclei fraction (CBRC017) [%],cleaved PARP positive nuclei fraction (COLO792) [%],cleaved PARP positive nuclei fraction (COLO800) [%],cleaved PARP positive nuclei fraction (COLO829) [%],cleaved PARP positive nuclei fraction (G361) [%],cleaved PARP positive nuclei fraction (IPC-298) [%],cleaved PARP positive nuclei fraction (IST-MEL1) [%],cleaved PARP positive nuclei fraction (LB2518-MEL) [%],cleaved PARP positive nuclei fraction (LOXIMVI) [%],cleaved PARP positive nuclei fraction (MEL-HO) [%]
"Cc1cc(Nc2cc(N3CCN(C)CC3)nc(/C=C/c3ccccc3)n2)n[nH]1 + Cn1cncc1[C@@](N)(c1ccc(Cl)cc1)c1ccc2c(c1)c(-c1cccc(Cl)c1)cc(=O)n2C [tipifarnib] (first compound 0.04 µM, partner dose 0.01 µM)",272,102,207,157,111,108,181,89.7,45.2,91.1,179,52.9,133,101,48.9,52.4,121,91.3,62.7
"O=C(O)c1ccc2c(c1)nc(Nc1cccc(Cl)c1)c1ccncc12 + CO[C@@H]1[C@H](N(C)C(=O)c2ccccc2)C[C@H]2O[C@]1(C)n1c3ccccc3c3c4c(c5c6ccccc6n2c5c31)C(=O)NC4 [Midostaurin] (first compound 0.4 µM, partner dose 0.08 µM)",79.4,47.2,145,56.1,221,302,128,106,268,167,95.3,115,306,219,47.7,55.7,41.8,60.8,61.6
"CNC(=O)c1cc(Oc2ccc(NC(=O)Nc3ccc(Cl)c(C(F)(F)F)c3)cc2)ccn1 [sorafenib] + CC1(C)NC(=O)N(c2ccc([N+](=O)[O-])c(C(F)(F)F)c2)C1=O [nilutamide] (first compound 0.4 µM, partner dose 1 µM)",83.5,80.3,81.6,97.3,45.5,105,55,86.2,127,93,30.2,41.8,141,183,71.2,93.4,91,59.1,142
"Nc1ncn([C@H]2C[C@H](O)[C@@H](CO)O2)c(=O)n1 [decitabine] + OCCn1cc(-c2cnc3nnn(Cc4ccc5ncccc5c4)c3n2)cn1 [PF04217903] (first compound 0.1 µM, partner dose 1 µM)",148,98.4,107,67.3,82.3,173,99.4,99.6,198,56,297,199,229,104,87.4,76.4,60.5,45.5,82.1
"CN1CCN(c2ccc3nc(-c4c(N)c5c(F)cccc5[nH]c4=O)[nH]c3c2)CC1 [Dovitinib] + OCCn1cc(-c2cnc3nnn(Cc4ccc5ncccc5c4)c3n2)cn1 [PF04217903] (first compound 0.1 µM, partner dose 1 µM)",104,88.7,273,117,84.6,78.5,105,101,87,100,163,65.2,96.6,181,92.7,49.3,110,98.9,126
"O=C(O)[C@@H]1[O][Sb](=[O])([O][Sb]2(=[O])[O][C@H]([C@H](O)CO)[C@H](O)[C@H](C(=O)O)[O]2)[O][C@H]([C@H](O)CO)[C@@H]1O (some centres undefined) [stibogluconate] + Cc1cc(N2CCOCC2)cc2[nH]c(-c3c(NC[C@@H](O)c4cccc(Cl)c4)cc[nH]c3=O)nc12 [BMS536924] (first compound 2 µM, partner dose 0.2 µM)",96.6,78.4,81.3,55.4,29,129,79.3,69.3,52.6,62.6,67.6,120,38,197,87.5,93.3,46.6,70.9,66.5
"O=C(O)c1ccc2c(c1)nc(Nc1cccc(Cl)c1)c1ccncc12 + Cc1ccc(NC(=O)c2cccc(N(C)C)c2)cc1NC(=O)c1ccc(O)cc1 [ZM336372] (first compound 0.4 µM, partner dose 2 µM)",91.2,83.6,190,131,133,58,93.9,156,155,161,147,57.2,146,137,131,64.1,92.9,51,57.5
"Cc1cc(Nc2cc(N3CCN(C)CC3)nc(/C=C/c3ccccc3)n2)n[nH]1 + C[C@@H]1CCN(C(=O)CC#N)C[C@@H]1N(C)c1ncnc2[nH]ccc12 [CP690550] (first compound 0.04 µM, partner dose 1 µM)",103,75.5,66.8,91.9,145,68.1,167,77,100,97.7,174,78.3,79.7,118,96.5,96.7,221,102,72.8
"CN1CCN(c2ccc3nc(-c4c(N)c5c(F)cccc5[nH]c4=O)[nH]c3c2)CC1 [Dovitinib] + COc1cc(Nc2ncc(F)c(Nc3ccc4c(n3)NC(=O)C(C)(C)O4)n2)cc(OC)c1OC [Tamatinib] (first compound 0.1 µM, partner dose 0.4 µM)",230,49.7,33.1,101,70.8,277,145,101,174,180,113,108,170,160,164,47.3,117,128,30.3
"Cn1c(=O)n(-c2ccc(C(C)(C)C#N)cc2)c2c3cc(-c4cnc5ccccc5c4)ccc3ncc21 + O=C(Nc1cccc(Cl)c1)Nc1ncc(CCNc2ncnc3ccsc23)s1 [SNS314] (first compound 0.004 µM, partner dose 0.0008 µM)",174,196,66.2,143,113,85.1,99.5,73.8,35.3,207,156,169,110,134,185,108,154,28.2,241
"C=C(c1ccc(C(=O)O)cc1)c1cc2c(cc1C)C(C)(C)CCC2(C)C [Bexarotene] + COc1cc(Nc2ncc(F)c(Nc3ccc4c(n3)NC(=O)C(C)(C)O4)n2)cc(OC)c1OC [Tamatinib] (first compound 2 µM, partner dose 0.4 µM)",99.6,73.4,135,130,122,408,127,102,130,118,80.9,74.5,119,38.2,100,34.8,95.2,19.3,395
"CCCS(=O)(=O)Nc1ccc(F)c(C(=O)c2c[nH]c3ncc(Cl)cc23)c1F + CO[C@@H]1[C@H](N(C)C(=O)c2ccccc2)C[C@H]2O[C@]1(C)n1c3ccccc3c3c4c(c5c6ccccc6n2c5c31)C(=O)NC4 [Midostaurin] (first compound 0.08 µM, partner dose 0.08 µM)",131,149,185,156,120,146,178,32.1,221,84.9,165,232,74.1,101,95.3,75.9,31.2,76.4,200
"O=C(O)c1ccc2c(c1)nc(Nc1cccc(Cl)c1)c1ccncc12 + CN(NC(=O)CC(=O)NN(C)C(=S)c1ccccc1)C(=S)c1ccccc1 [STA4783] (first compound 0.4 µM, partner dose 0.006 µM)",506,78.8,144,1010,86.9,474,151,715,278,184,172,58.6,200,112,60.3,92.9,89,60,96.9
"CS(=O)(=O)CCNCc1ccc(-c2ccc3ncnc(Nc4ccc(OCc5cccc(F)c5)c(Cl)c4)c3c2)o1 [lapatinib] + Cc1ccc(NC(=O)c2cccc(N(C)C)c2)cc1NC(=O)c1ccc(O)cc1 [ZM336372] (first compound 0.8 µM, partner dose 2 µM)",189,186,88,149,178,38.4,96.5,112,174,86.2,126,218,169,130,112,24.1,53.6,59,164
"O=C(O)[C@@H]1[O][Sb](=[O])([O][Sb]2(=[O])[O][C@H]([C@H](O)CO)[C@H](O)[C@H](C(=O)O)[O]2)[O][C@H]([C@H](O)CO)[C@@H]1O (some centres undefined) [stibogluconate] + C=CCn1c(=O)c2cnc(Nc3ccc(N4CCN(C)CC4)cc3)nc2n1-c1cccc(C(C)(C)O)n1 [MK1775] (first compound 2 µM, partner dose 0.02 µM)",143,50.9,60.2,203,90.5,227,101,116,178,99.9,63.6,84.1,88.2,90.5,58.1,180,50.4,37.4,27.5
"Nc1ccn([C@@H]2O[C@H](CO)[C@@H](O)C2(F)F)c(=O)n1 [gemcitabine] + C=CCn1c(=O)c2cnc(Nc3ccc(N4CCN(C)CC4)cc3)nc2n1-c1cccc(C(C)(C)O)n1 [MK1775] (first compound 0.0004 µM, partner dose 0.02 µM)",168,114,95.6,137,59.4,143,110,157,251,163,152,36.9,61.9,111,106,216,64.2,90.4,144

# Reprinted at random: two entries already listed
SMILES,cleaved PARP positive nuclei fraction (501Mel) [%],cleaved PARP positive nuclei fraction (A101D) [%],cleaved PARP positive nuclei fraction (A2058) [%],cleaved PARP positive nuclei fraction (A375) [%],cleaved PARP positive nuclei fraction (C32) [%],cleaved PARP positive nuclei fraction (CBRC008) [%],cleaved PARP positive nuclei fraction (CBRC013) [%],cleaved PARP positive nuclei fraction (CBRC014) [%],cleaved PARP positive nuclei fraction (CBRC016) [%],cleaved PARP positive nuclei fraction (CBRC017) [%],cleaved PARP positive nuclei fraction (COLO792) [%],cleaved PARP positive nuclei fraction (COLO800) [%],cleaved PARP positive nuclei fraction (COLO829) [%],cleaved PARP positive nuclei fraction (G361) [%],cleaved PARP positive nuclei fraction (IPC-298) [%],cleaved PARP positive nuclei fraction (IST-MEL1) [%],cleaved PARP positive nuclei fraction (LB2518-MEL) [%],cleaved PARP positive nuclei fraction (LOXIMVI) [%],cleaved PARP positive nuclei fraction (MEL-HO) [%]
"O=C(O)c1ccc2c(c1)nc(Nc1cccc(Cl)c1)c1ccncc12 + CO[C@@H]1[C@H](N(C)C(=O)c2ccccc2)C[C@H]2O[C@]1(C)n1c3ccccc3c3c4c(c5c6ccccc6n2c5c31)C(=O)NC4 [Midostaurin] (first compound 0.4 µM, partner dose 0.08 µM)",79.4,47.2,145,56.1,221,302,128,106,268,167,95.3,115,306,219,47.7,55.7,41.8,60.8,61.6
"CN1CCN(c2ccc3nc(-c4c(N)c5c(F)cccc5[nH]c4=O)[nH]c3c2)CC1 [Dovitinib] + COc1cc(Nc2ncc(F)c(Nc3ccc4c(n3)NC(=O)C(C)(C)O4)n2)cc(OC)c1OC [Tamatinib] (first compound 0.1 µM, partner dose 0.4 µM)",230,49.7,33.1,101,70.8,277,145,101,174,180,113,108,170,160,164,47.3,117,128,30.3
